{"source": "patent US6030960A", "about": "“Method of treating hepatitis virus infections” (priority 1998, dated 2000)", "test_system": "Hepatitis B virus", "test": "Effect on synthesis of antigen markers in persistently infected human HEP G2 cell cultures (Table 7)", "format": "cell-based", "settings": "in words", "description": "Cells were treated with compound for nine days at 37° C. The overlay medium was harvested to measure levels of HBsAg, HBeAg and virion DNA. HBsAg and HBeAg were assayed by EIA (Abbott Laboratories). Virion DNA levels were measured as described in section B above.", "note": "At least one structure is not confirmed: it was looked up by name or label, or the drawing left a doubt."}
{"smiles": "CCCCCCCCCCCCCCCCCCOCC(O)COP(=O)([O-])OCC[N+](C)(C)C", "note": "(racemic) [lyso PAF, rac-3-octadecyloxy-2-hydroxy-1-propyl phosphocholine]", "values": [{"measurement": "reduction in HBeAg and virion DNA levels", "result": "caused a reduction"}]}
